Some of the results follow.
What follows are targets tested with C1COCCN1CCN2C3=CC=CC=C3N=C2NC(=O)C4=CC(=CC=C4)[N+](=O)[O-] [IRAK-1-4 Inhibitor I] (assay: log2 fold change, soluble protein after heating vs DMSO (PISA); higher = thermal stabilisation; K562 cells, 10 uM, 30 min; active = over 0.2 and 3.5 SD of the protein, either way, in both replicates (recomputed)).
Procedure, shortened: (§1)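 For each measurement, 10 μM compound was applied for 30 min to K562 cells at 2×10^6 cells/mL. Aliquots were heated for 3 min across 48°C-58°C, pooled, and extracted in PBS with 0.5% NP-40 at 4°C; the supernatant after 21,000xg for 90 min was soluble protein. This was quantified by TMTpro 16plex LC-MS/MS with channel sums equalised, and thermal stability was reported relative to control samples from duplicates, on a log2 fold-change scale.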

Sequences of proteins named here, by UniProt entry; tags and fusion partners are left off. A change or cut given only in a name is not applied to a line headed by its entry.
UniProt Q16342: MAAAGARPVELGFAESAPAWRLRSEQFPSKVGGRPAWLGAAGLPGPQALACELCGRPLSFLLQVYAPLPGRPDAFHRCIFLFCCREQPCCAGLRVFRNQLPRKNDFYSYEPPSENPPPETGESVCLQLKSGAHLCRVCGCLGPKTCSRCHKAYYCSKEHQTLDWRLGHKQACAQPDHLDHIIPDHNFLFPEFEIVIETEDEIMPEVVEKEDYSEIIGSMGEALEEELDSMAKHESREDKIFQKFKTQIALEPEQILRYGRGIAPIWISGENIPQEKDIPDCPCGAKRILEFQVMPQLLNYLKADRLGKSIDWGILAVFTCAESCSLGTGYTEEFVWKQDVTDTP
UniProt Q9P0J1: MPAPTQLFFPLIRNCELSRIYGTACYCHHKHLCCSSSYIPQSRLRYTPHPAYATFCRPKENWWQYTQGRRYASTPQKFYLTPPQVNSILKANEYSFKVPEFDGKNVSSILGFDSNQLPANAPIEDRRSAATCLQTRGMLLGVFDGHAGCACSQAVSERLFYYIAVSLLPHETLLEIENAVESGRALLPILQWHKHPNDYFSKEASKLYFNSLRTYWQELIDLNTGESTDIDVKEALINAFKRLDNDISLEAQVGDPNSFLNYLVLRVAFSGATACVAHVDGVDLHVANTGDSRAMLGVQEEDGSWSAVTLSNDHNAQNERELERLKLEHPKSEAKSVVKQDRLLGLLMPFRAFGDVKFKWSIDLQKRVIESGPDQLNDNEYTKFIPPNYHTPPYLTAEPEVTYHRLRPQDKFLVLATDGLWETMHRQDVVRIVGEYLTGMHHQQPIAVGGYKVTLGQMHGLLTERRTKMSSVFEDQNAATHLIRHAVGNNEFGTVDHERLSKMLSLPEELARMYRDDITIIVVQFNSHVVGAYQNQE
UniProt Q13370: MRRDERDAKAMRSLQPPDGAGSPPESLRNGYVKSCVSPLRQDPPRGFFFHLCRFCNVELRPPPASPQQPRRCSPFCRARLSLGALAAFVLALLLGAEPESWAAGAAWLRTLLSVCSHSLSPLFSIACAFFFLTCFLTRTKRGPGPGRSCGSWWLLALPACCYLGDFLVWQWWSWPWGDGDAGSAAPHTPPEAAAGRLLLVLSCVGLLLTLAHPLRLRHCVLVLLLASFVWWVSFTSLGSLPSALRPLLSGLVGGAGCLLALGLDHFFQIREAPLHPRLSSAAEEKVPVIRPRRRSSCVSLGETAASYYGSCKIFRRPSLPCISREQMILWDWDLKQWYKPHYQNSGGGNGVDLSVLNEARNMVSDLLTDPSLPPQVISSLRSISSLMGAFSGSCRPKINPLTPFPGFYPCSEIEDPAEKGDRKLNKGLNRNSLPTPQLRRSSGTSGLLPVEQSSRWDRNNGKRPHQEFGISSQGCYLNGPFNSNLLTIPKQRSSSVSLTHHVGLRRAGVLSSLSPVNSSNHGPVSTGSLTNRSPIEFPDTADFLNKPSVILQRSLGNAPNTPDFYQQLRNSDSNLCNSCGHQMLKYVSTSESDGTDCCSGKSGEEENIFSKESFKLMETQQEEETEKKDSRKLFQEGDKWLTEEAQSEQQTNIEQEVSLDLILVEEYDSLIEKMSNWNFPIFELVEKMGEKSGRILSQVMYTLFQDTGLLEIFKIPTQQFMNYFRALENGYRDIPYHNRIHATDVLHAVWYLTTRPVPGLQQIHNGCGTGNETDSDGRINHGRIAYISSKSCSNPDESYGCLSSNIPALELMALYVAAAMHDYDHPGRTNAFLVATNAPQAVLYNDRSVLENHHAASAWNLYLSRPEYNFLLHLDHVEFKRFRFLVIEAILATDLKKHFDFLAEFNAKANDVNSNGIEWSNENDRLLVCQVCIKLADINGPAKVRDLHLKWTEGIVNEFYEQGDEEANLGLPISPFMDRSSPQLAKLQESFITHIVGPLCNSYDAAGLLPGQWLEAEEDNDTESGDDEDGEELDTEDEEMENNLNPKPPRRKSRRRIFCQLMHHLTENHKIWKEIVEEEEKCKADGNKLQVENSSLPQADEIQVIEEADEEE
UniProt Q9Y5B6: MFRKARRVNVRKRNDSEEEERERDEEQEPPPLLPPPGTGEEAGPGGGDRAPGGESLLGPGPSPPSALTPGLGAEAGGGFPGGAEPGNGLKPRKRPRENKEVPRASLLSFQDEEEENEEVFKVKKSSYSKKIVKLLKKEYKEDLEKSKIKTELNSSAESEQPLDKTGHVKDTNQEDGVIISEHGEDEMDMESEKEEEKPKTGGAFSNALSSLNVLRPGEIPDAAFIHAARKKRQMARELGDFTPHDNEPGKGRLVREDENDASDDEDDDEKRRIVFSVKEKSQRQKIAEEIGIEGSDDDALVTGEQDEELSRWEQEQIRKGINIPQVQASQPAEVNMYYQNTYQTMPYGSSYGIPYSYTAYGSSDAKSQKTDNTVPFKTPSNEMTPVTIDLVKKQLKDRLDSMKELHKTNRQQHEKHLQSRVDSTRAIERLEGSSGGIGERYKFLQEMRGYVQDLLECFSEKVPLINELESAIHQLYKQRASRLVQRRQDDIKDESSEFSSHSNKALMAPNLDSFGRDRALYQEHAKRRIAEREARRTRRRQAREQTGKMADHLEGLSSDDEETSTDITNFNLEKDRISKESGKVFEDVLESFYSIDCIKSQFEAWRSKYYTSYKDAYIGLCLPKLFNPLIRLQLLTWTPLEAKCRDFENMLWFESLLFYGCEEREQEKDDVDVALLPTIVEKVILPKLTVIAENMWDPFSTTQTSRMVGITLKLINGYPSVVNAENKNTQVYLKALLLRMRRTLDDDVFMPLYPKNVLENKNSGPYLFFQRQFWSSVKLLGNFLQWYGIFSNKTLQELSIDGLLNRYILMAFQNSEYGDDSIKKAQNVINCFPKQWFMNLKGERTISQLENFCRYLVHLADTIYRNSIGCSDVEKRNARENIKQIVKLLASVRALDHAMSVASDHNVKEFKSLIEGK
UniProt O75781: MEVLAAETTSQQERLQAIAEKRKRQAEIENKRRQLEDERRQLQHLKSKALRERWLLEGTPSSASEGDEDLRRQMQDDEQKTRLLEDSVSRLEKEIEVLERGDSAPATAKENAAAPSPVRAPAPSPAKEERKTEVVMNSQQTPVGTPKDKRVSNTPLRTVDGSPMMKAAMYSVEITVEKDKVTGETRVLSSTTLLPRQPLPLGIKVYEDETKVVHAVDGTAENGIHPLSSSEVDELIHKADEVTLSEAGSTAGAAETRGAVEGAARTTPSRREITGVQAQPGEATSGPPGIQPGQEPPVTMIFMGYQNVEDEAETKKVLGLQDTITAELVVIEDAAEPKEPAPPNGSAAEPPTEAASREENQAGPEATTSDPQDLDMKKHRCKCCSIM
UniProt Q9H999: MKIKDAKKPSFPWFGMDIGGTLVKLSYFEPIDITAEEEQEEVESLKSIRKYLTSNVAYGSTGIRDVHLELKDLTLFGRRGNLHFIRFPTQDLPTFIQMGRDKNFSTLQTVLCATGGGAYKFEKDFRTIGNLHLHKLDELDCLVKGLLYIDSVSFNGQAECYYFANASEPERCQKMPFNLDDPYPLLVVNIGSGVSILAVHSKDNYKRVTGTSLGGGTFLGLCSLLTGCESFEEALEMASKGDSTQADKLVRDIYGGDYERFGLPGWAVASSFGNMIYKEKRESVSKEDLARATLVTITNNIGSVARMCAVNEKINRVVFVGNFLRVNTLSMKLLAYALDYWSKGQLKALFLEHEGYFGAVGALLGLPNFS
UniProt O60829: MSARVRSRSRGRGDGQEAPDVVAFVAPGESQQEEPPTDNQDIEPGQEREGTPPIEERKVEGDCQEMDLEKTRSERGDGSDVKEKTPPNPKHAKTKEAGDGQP
UniProt Q8TE04: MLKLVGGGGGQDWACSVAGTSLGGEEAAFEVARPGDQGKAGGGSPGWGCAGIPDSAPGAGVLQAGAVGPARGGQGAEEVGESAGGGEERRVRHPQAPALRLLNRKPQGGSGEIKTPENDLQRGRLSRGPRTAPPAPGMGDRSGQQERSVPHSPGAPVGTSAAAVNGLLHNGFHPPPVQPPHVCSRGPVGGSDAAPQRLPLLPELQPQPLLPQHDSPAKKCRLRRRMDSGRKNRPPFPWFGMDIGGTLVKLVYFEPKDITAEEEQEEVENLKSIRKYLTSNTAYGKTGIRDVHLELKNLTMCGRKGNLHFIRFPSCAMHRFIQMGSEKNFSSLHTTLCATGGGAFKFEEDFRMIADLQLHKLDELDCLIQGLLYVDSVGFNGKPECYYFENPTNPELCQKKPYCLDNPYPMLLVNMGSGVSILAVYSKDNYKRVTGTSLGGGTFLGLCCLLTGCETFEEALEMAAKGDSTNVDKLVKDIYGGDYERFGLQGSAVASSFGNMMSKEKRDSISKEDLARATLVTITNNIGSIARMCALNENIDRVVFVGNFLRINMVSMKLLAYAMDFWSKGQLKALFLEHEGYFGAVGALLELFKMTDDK
UniProt Q86U42: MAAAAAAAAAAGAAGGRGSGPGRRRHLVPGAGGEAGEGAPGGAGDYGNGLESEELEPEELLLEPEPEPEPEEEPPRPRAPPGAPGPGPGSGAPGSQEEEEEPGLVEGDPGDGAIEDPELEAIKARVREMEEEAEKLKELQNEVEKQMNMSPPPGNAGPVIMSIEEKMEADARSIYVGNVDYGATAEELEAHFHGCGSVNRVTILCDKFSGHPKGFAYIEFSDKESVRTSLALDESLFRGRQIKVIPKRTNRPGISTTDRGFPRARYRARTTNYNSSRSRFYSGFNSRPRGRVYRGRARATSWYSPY
UniProt O60683: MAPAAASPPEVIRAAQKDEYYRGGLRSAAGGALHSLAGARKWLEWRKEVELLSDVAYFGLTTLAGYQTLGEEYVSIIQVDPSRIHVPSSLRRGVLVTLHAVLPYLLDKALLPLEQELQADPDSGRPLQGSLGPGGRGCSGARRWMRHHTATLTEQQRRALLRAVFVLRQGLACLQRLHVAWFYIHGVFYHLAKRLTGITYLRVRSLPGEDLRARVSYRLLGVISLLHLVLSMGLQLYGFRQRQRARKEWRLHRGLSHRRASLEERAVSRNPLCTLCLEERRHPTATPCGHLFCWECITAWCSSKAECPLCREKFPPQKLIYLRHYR
UniProt Q58A45: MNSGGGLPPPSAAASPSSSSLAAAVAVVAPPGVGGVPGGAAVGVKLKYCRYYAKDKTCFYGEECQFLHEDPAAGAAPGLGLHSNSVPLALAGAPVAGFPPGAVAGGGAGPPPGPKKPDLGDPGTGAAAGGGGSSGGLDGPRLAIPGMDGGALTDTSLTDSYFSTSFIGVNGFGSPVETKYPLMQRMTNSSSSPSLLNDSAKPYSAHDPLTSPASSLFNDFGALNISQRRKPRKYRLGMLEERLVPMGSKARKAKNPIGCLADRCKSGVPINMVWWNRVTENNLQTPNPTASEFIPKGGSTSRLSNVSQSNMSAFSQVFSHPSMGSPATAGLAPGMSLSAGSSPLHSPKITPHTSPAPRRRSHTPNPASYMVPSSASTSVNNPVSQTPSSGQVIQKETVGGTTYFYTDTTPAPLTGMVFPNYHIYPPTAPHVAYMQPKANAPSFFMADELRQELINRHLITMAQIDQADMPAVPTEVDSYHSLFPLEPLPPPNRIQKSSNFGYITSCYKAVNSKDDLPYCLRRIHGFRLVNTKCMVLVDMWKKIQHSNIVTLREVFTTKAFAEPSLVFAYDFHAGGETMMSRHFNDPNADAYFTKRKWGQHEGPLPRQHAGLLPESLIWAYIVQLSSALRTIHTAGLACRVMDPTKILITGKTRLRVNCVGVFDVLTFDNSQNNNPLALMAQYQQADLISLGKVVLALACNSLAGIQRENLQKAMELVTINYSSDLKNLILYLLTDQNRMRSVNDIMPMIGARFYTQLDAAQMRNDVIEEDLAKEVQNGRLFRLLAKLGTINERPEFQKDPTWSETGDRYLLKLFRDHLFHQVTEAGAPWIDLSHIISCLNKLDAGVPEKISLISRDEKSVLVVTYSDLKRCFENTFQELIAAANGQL
UniProt Q9NV79: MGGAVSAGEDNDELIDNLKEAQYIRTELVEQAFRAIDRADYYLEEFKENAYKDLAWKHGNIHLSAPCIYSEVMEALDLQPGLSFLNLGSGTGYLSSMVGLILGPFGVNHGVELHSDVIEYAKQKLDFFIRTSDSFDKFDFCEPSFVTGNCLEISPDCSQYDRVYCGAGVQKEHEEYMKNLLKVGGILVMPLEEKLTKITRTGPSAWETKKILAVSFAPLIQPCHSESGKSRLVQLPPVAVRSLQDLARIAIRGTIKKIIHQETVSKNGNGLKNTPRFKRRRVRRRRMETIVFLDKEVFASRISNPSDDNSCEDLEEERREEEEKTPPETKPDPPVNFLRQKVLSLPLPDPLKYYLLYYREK

Target | log2 fold change
PDCD2 (UniProt Q16342) | inactive: -0.166
PDIA4, A0A499FI48 | inactive: -0.093
PCBP2 (UniProt F8VZX2) | inactive: -0.177
PACSIN3 (UniProt Q9UKS6) | inactive: -0.446
PDP1 isoform 2 (UniProt Q9P0J1) | inactive: -0.226
PDE3B (UniProt Q13370) | inactive: -0.13
PDE4DIP (UniProt E9PS60) | inactive: -0.183
PAXBP1 (UniProt Q9Y5B6) | inactive: -0.547
PALM (UniProt O75781) | inactive: -0.005

Each target was assayed with C=CC(=O)N1CCC[C@@H](n2nc(-c3ccc(Oc4ccccc4)cc3)c3c(N)ncnc32)C1 [ibrutinib] in the same assay as above.
Procedure, shortened: as §1

Target | log2 fold change
PDCD2 (UniProt Q16342) | inactive: 0.139
PCNX1 (UniProt Q96RV3) | inactive: 0.008
PCBP2 (UniProt F8VZX2) | inactive: 0.212
PANK3 (UniProt Q9H999) | inactive: 0.028
PCSK6 isoform 7 (UniProt P29122) | inactive: -0.165
PDP1 isoform 2 (UniProt Q9P0J1) | inactive: 0.158
PAGE4 (UniProt O60829) | inactive: 0.28
PAXBP1 (UniProt Q9Y5B6) | inactive: -0.124
PANK1 (UniProt Q8TE04) | inactive: -0.021
PABPN1 (UniProt Q86U42) | inactive: 0.088
PAN2 (UniProt Q504Q3) | inactive: -0.134

These targets were tested with CC(=O)c1cnc2ccc(-c3cc(Cl)c(O)c(Cl)c3)nc2c1N[C@H]1CC[C@H](CN(C)C)CC1 in the same assay as above.
Procedure, shortened: as §1

Target | log2 fold change
PAICS (UniProt D6RF62) | inactive: -0.063
PDIA4, A0A499FI48 | inactive: 0.064
PANK3 (UniProt Q9H999) | inactive: 0.015
PCSK6 isoform 7 (UniProt P29122) | inactive: -0.085
PAGE4 (UniProt O60829) | inactive: 0.084
PANK1 (UniProt Q8TE04) | inactive: -0.093
PEX10 isoform 2 (UniProt O60683) | inactive: -0.138

These targets were tested with CC(C)(C)Cn1c(N)nc2ccc(-c3[nH]c(C(C)(C)C)nc3-c3ccc(F)cc3)nc21 [ralimetinib] in the same assay as above.
Procedure, shortened: as §1

Target | log2 fold change
PAICS (UniProt D6RF62) | inactive: -0.211
PDIA4, A0A499FI48 | inactive: 0.106
PCBP2 (UniProt F8VZX2) | inactive: -0.004
PANK3 (UniProt Q9H999) | inactive: -0.015
PACSIN3 (UniProt Q9UKS6) | inactive: -0.046
PAGE4 (UniProt O60829) | inactive: 0.06
PAN3 (UniProt Q58A45) | inactive: -0.052
PCMTD2 (UniProt Q9NV79) | inactive: 0.028
PAF1 (UniProt Q8N7H5) | inactive: 0.096
PAXBP1 (UniProt Q9Y5B6) | inactive: 0.079
PANK1 (UniProt Q8TE04) | inactive: 0.028
